{
  "source": "PubChem BioAssay AID1487",
  "about": "(National Center for Advancing Translational Sciences (NCATS), 2009)",
  "assay": "qHTS Assay for Modulators of Lamin A Splicing",
  "conditions": "HeLa LMNA splicing GFP/RFP minigene ratio, 48 h",
  "in_short": "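Read-out is the ratio of GFP to DsRed2 object intensity, acquired by 488 nm laser-scanning cytometry on HeLa lamin A-EGFP minigene reporter cells. Compound incubation 48 hrs at 37 °C in Opti-MEM with 2% FBS; DMSO 0.5% final.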",
  "key": {"[1]": {"conditions": "measured here: GFP splicing reporter channel"}, "[2]": {"conditions": "measured here: RFP viability control channel"}},
  "note": "The list shows a part of the results. These are further read-outs of the screen, such as a control signal, another cell line or another target. No call is given for them. The list favours compounds with an active or inconclusive main result. Words in brackets tell the shape of the fitted curve; partial curves, single points and poor fits give uncertain potencies.",
  "data": [
    {"smiles": "Cc1ccc(S(=O)(=O)c2ccc(Cl)cc2)cc1S(=O)(=O)N1CCOCC1", "values": [
      {"measurement": "AC50", "setting": "[1]", "value": "25.1 µM [rising, single point]"},
      {"measurement": "AC50", "setting": "[2]", "value": "35.5 µM [rising, single point]"}
    ]},
    {"smiles": "COc1ccc(CN2CN(C(C)C)CSC2=S)cc1", "values": [
      {"measurement": "AC50", "setting": "[1]", "value": "10 µM [falling, partial curve, poor fit]"},
      {"measurement": "AC50", "setting": "[2]", "value": "7.08 µM [falling, full curve]"}
    ]},
    {"smiles": "O=C(CCN1CCC(c2ccccc2)C1)c1ccc2c(c1)OCCO2", "note": "(configuration not stated)", "values": [
      {"measurement": "AC50", "setting": "[1]", "value": "35.5 µM [falling, single point]"},
      {"measurement": "AC50", "setting": "[2]", "value": "3.55 µM [falling, partial curve]"}
    ]},
    {"smiles": "COc1ccc(CCNC(=O)CCCn2nc(C)c([N+](=O)[O-])c2C)cc1OC", "values": [
      {"measurement": "AC50", "setting": "[1]", "value": "0.224 µM [rising, full curve, poor fit]"}
    ]},
    {"smiles": "CCn1c(SCC(=O)Nc2ccccc2OC)nc2ccccc2c1=O", "values": [
      {"measurement": "AC50", "setting": "[2]", "value": "15.8 µM [rising, single point]"}
    ]},
    {"smiles": "Cn1c(=O)oc2cc(S(=O)(=O)N3CCCC(C(=O)N4CC=C(c5ccccc5)CC4)C3)ccc21", "note": "(configuration not stated)", "values": [
      {"measurement": "AC50", "setting": "[2]", "value": "11.2 µM [rising, partial curve]"}
    ]},
    {"smiles": "O=C(C[n+]1ccccc1)N/N=C/c1ccccc1[N+](=O)[O-]", "values": [
      {"measurement": "AC50", "setting": "[1]", "value": "35.5 µM [rising, single point]"}
    ]},
    {"smiles": "O=c1cc(N2CCN(Cc3ccccc3)CC2)c(-c2ccccc2)n[nH]1", "values": [
      {"measurement": "AC50", "setting": "[1]", "value": "0.708 µM [falling, single point]"}
    ]},
    {"smiles": "O=C(NC(=S)N1CCN(c2ccc([N+](=O)[O-])cc2)CC1)c1ccco1", "values": [
      {"measurement": "AC50", "setting": "[2]", "value": "0.00447 µM [falling, full curve, poor fit]"}
    ]},
    {"smiles": "COC(=O)/C=C/C(=O)Nc1ccc(O)c(Cl)c1", "values": [
      {"measurement": "AC50", "setting": "[1]", "value": "11.2 µM [rising, partial curve, poor fit]"},
      {"measurement": "AC50", "setting": "[2]", "value": "14.1 µM [rising, single point]"}
    ]},
    {"smiles": "CCCn1c(=O)c(C(=O)NNS(=O)(=O)c2ccc(C)cc2)c(O)c2ccccc21", "values": [
      {"measurement": "AC50", "setting": "[2]", "value": "25.1 µM [rising, single point]"}
    ]},
    {"smiles": "COc1ccc(/C=N/NC(=O)CCn2cnc(-c3ccccc3)c2-c2ccccc2)cc1", "values": [
      {"measurement": "AC50", "setting": "[1]", "value": "12.6 µM [rising, partial curve]"},
      {"measurement": "AC50", "setting": "[2]", "value": "5.01 µM [rising, partial curve]"}
    ]},
    {"smiles": "O=C(Nc1ccccc1)/C(=C/c1ccccc1)c1ccccc1", "values": [
      {"measurement": "AC50", "setting": "[1]", "value": "35.5 µM [falling, single point]"},
      {"measurement": "AC50", "setting": "[2]", "value": "35.5 µM [falling, single point]"}
    ]},
    {"smiles": "O=C(Nc1nc(-c2cccs2)cs1)c1cccc(S(=O)(=O)N2CCCCC2)c1", "values": [
      {"measurement": "AC50", "setting": "[1]", "value": "8.91 µM [rising, partial curve]"},
      {"measurement": "AC50", "setting": "[2]", "value": "6.31 µM [rising, full curve]"}
    ]},
    {"smiles": "O=C(CC(c1ccccc1)c1ccccc1)N1CCN(c2ccccn2)CC1", "values": [
      {"measurement": "AC50", "setting": "[1]", "value": "14.1 µM [rising, partial curve, poor fit]"}
    ]}
  ]
}
